Reference: patent US20160287536A1, “Composition” (THE UNIVERSITY OF NOTTINGHAM, priority 2013, published 2016)

How the values were obtained:
α1-adrenoceptor = experiment: Saturation radioligand binding of [^3H]-prazosin to sheep anorectal tissue membranes
α2-adrenoceptor = experiment: Saturation radioligand binding of [^3H]-RX821002 to sheep anorectal tissue membranes; conditions: sheep rectal artery, sheep rectal vein and terminal branches

COc1cc2nc(N3CCN(C(=O)c4ccco4)CC3)nc(N)c2cc1OC [[^3H]-prazosin]
density of α1-adrenoceptors ([^3H]-prazosin binding, Bmax) (α1-adrenoceptor; sheep rectal artery and vein): about 100 fmol/mg protein | density of α1-adrenoceptors ([^3H]-prazosin binding, Bmax) (α1-adrenoceptor; terminal branches of rectal vessels): 36.5 fmol/mg protein

COC1(C2=NCCN2)COc2ccccc2O1 (stereo not drawn) [[^3H]-RX821002, 2-(2-methoxy-1,4-benzodioxan-2-yl)-2-imidazoline]
density of α2-adrenoceptors bound to [^3H]-RX821002 (Bmax) (α2-adrenoceptor): about 60 fmol/mg protein
